This assay addresses T1, BD-COP1 (Arabidopsis) (UniProt P43254).
T1 sequence: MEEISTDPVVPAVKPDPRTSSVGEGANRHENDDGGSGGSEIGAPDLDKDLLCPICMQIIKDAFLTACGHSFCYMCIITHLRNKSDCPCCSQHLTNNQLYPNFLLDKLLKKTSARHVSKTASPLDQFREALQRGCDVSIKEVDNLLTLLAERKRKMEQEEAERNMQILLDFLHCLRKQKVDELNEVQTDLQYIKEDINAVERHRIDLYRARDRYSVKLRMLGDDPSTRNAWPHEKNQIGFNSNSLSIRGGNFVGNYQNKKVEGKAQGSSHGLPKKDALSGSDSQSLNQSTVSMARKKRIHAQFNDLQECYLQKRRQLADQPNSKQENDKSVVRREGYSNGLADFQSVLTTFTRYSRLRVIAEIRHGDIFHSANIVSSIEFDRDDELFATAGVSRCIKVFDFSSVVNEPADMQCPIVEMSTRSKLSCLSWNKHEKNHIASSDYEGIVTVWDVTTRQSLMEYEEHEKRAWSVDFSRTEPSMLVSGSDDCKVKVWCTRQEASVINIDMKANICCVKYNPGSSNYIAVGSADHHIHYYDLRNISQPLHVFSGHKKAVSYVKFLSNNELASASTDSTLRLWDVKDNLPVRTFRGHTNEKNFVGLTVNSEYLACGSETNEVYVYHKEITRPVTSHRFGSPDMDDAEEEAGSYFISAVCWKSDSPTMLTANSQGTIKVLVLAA
Kind of assay: two-hybrid; Y2H, quantified read-out with SD of three independent biological replicates (Fig. 2B, E, F); BD-COP1 or its mutants with AD fusions.

The chains behind the UniProt entries cited, without tags or fusion partners. Where a name states a change or a piece, a line headed by the entry shows the natural chain unless it says otherwise.
UniProt O82277: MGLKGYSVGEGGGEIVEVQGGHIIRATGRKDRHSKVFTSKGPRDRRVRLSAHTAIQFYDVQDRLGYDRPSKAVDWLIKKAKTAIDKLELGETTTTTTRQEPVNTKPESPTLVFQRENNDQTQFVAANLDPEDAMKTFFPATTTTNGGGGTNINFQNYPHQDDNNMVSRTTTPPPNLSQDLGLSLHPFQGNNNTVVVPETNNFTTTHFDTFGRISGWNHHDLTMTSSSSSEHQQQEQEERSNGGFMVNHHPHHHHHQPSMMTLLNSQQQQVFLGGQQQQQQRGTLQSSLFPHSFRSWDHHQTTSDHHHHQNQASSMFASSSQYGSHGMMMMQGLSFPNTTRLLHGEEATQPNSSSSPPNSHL

No constants are given. Whether binding was seen depends on the method and setting. Binding calls can cover weak binding; strength is not graded here. Sequences can lack the tags named with a protein.

AD-TCP10VPAA (from UniProt O82277): the binding result is recorded as “binds”.

The record behind these values is article PMC12107181 (2025).
